Reference: US9198894B2, “Uses of 15-benzylidene-14-deoxy-11,12-didehydroandrographolide derivatives in the preparation of antineoplastic drugs” (Zhengzhou University, priority 2010, dated 2015)
Entries after “also recorded” stand apart in the source; their conditions may differ. Some of these results come from one statement about several compounds together.

How the values were obtained:
[1] = tested on: ECV304 human vascular endothelial cells; test: Three-dimensional migration of ECV304 (Transwell chamber); type: cell-based; conditions: 10.00 μmol/L, 18 h (FIG. 2B)
[2] = tested on: ECV304 human vascular endothelial cells; test: Two-dimensional migration of ECV304 (wound healing); type: cell-based; conditions: 10.00 μmol/L (FIG. 2A)

| SMILES | Inhibition of three-dimensional migration of ECV304 [1] | Inhibition of two-dimensional migration of ECV304 [2] |
| --- | --- | --- |
| C=C1CCC2C(C)(CO)C(O)CCC2(C)C1C=CC1=CC(=Cc2ccc(Cl)cc2)OC1=O (stereo not shown) [Compound 2, 15-p-chlorobenzylidene-14-deoxy-11,12-didehydro-andrographolide] | effectively inhibited; also recorded: significantly stronger than AD (1) | potent inhibition |
| C=C1CCC2C(C)(COC(=O)c3cccnc3)C(OC(=O)c3cccnc3)CCC2(C)C1C=CC1=CC(=Cc2ccc(Cl)cc2)OC1=O (stereo not shown) [Compound 3, 15-p-chlorobenzylidene-14-deoxy-11,12-didehydro-3,19-dinicotinate andrographolide] | effectively inhibited; also recorded: significantly stronger than AD (1) | potent inhibition |
| C=C1CCC2C(C)(CO)C(O)CCC2(C)C1C=CC1=CC(=Cc2ccccc2)OC1=O (stereo not shown) [Compound 4] | effectively inhibited; also recorded: significantly stronger than AD (1) | potent inhibition |
| C=C1CCC2C(C)(CO)C(O)CCC2(C)C1C=CC1=CC(=Cc2ccc(F)cc2)OC1=O (stereo not shown) [Compound 5] | effectively inhibited; also recorded: significantly stronger than AD (1) | potent inhibition |
| C=C1CCC2C(C)(CO)C(O)CCC2(C)C1C=CC1=CC(=Cc2ccc(Br)cc2)OC1=O (stereo not shown) [Compound 6] | effectively inhibited; also recorded: significantly stronger than AD (1) | potent inhibition |
| C=C1CCC2C(C)(CO)C(O)CCC2(C)C1C=CC1=CC(=Cc2ccc(OC)cc2)OC1=O (stereo not shown) [Compound 7] | effectively inhibited; also recorded: significantly stronger than AD (1) | potent inhibition |
| C=C1CCC2C(C)(COC(=O)CCC(=O)O)C(OC(=O)CCC(=O)O)CCC2(C)C1C=CC1=CC(=Cc2ccc(Cl)cc2)OC1=O (stereo not shown) [Compound 8] | effectively inhibited; also recorded: significantly stronger than AD (1) |  |
